PubChem BioAssay AID743454 | Peter MacCallum Cancer Centre, 2014
Aim: 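Search for knock-downs that restore vorinostat killing in resistant colon cancer cells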 (primary screen). Cells: human HCT116-VR colon cancer cells, selected for vorinostat resistance. Knock-down reagent: siRNA pool against human genes, 40 nM siRNA pool. Time to read-out: vorinostat for 24 h, read-out about 72 h after transfection. Conditions: vorinostat at 2.5 µM final. Measured: 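Two measures, CellTiter-Fluor viability and luminescent caspase 3/7 activity, each as fold change against same-plate mock wells, mean of duplicates, then screen-wide robust z-score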. Direction: viability robust z-score: higher = more viable cells than screen typical; caspase robust z-score: higher = more caspase 3/7 activity than screen typical. Rule for the call: 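Hits are knock-downs in viability class RV1/RV2 or caspase class CA1/CA2, excluding ones that killed cells in the no-drug cell-count arm; hits then retested with single siRNAs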.
Here is one part, drawn at random, of about 18,000 deposited reagents. 450 of all reagents (2.5%) count as active. 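Single biological run; no consistent viability z cut-off exists, so the class columns, not z-scores, define the calls.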 Entries without a mark were called inactive. No sequences are given here.

gene	PubChem SID	viability hit class	caspase hit class	viability robust z-score	caspase robust z-score
LRFN2 (GeneID 57497)	SID152149605	no change	no change	0.9	-0.33
MZT2B (GeneID 80097)	SID134318684	no change	no change	0.14	0.48
CLEC3A (GeneID 10143)	SID152148636	no change	no change	-0.5	-0.83
TRPC5 (GeneID 7224)	SID152154562	no change	no change	-0.66	3.5
IDH3G (GeneID 3421)	SID134314116	no change	no change	-0.55	2.15
FNBP4 (GeneID 23360)	SID152146847	no change	no change	-0.05	0.12
HES2 (GeneID 54626)	SID135624679	no change	no change	1.25	0.29
LONRF3 (GeneID 79836)	SID152154798	no change	no change	-1	-1.08
PILRA (GeneID 29992)	SID134322836	no change	no change	0.45	-0.51
STH (GeneID 246744)	SID135625250	no change	no change	-0.42	0.72
RHD (GeneID 6007)	SID152154261	no change	no change	0.55	0.08
HDAC11 (GeneID 79885)	SID134310344	no change	no change	-0.28	-0.46
SPACA7 (GeneID 122258)	SID152152746	no change	no change	0.84	-0.44
RAB9A (GeneID 9367)	SID134310300	no change	no change	0.39	-0.48
NRF1 (GeneID 4899)	SID135623418	no change	no change	0.34	1.5
FHL5 (GeneID 9457)	SID134312033	no change	no change	1.09	0.02
OR51B4 (GeneID 79339)	SID152156498	no change	no change	0.24	-0.64
RSL24D1 (GeneID 51187)	SID134317404	no change	no change	-3.16	1.42
RGL4 (GeneID 266747)	SID134313473	no change	no change	-0.12	1.16
CTRB1 (GeneID 1504)	SID152148623	no change	no change	-1.33	-0.08
GSAP (GeneID 54103)	SID135624507	no change	no change	1.09	0.01
SSTR3 (GeneID 6753)	SID134311159	no change	no change	-0.5	1.71
ZNF143 (GeneID 7702)	SID152150190	no change	no change	0.72	-0.42
CHRFAM7A (GeneID 89832)	SID135621149	no change	no change	0.66	-0.72
DNMT3B (GeneID 1789)	SID134311770	no change	no change	-0.35	-0.02
GOLGA1 (GeneID 2800)	SID134315994	no change (active)	CA1 (caspase activation)	-0.58	5.51
LETM1 (GeneID 3954)	SID134323330	no change	no change	-1.73	1.85
SMARCD2 (GeneID 6603)	SID135622118	no change (active)	CA1 (caspase activation)	-1.04	5.98
HEMK1 (GeneID 51409)	SID152156479	no change	no change	-0.14	-0.34
ASB15 (GeneID 142685)	SID135624960	no change	no change	-0.57	-0.52
THSD7B (GeneID 80731)	SID152152035	no change (active)	CA2 (caspase activation)	-2.2	9.14
BPY2 (GeneID 9083)	SID135622222	no change	no change	0.32	3
SLC22A6 (GeneID 9356)	SID134312503	no change	no change	-0.5	-0.08
ADH1C (GeneID 126)	SID135621206	no change	no change	0.48	-0.53
DOCK7 (GeneID 85440)	SID152149470	no change	no change	0.62	0.15
FBP1 (GeneID 2203)	SID152151611	no change (active)	CA1 (caspase activation)	-0.55	5.15
PTPN1 (GeneID 5770)	SID134309938	no change	no change	1.31	-0.22
POLR1E (GeneID 64425)	SID134318278	no change	no change	0.25	1.52
RBFOX2 (GeneID 23543)	SID135624015	no change	no change	-3.48	1.08
MFSD2B (GeneID 388931)	SID135624719	no change	no change	-0.75	-1.21
TIAM2 (GeneID 26230)	SID152148794	no change	no change	-1.77	1.05
SULT2B1 (GeneID 6820)	SID135621786	no change	no change	-0.26	0.04
RNF182 (GeneID 221687)	SID152148085	no change	no change	0.21	-0.26
FRRS1L (GeneID 23732)	SID135624536	no change	no change	-0.36	1.23
DDIT3 (GeneID 1649)	SID135620892	no change	no change	-0.64	1.6
TREML4 (GeneID 285852)	SID134325075	no change	no change	0.19	-0.68
KLK4 (GeneID 9622)	SID152147018	no change	no change	0.6	0.66
TPSAB1 (GeneID 7177)	SID135621131	no change	no change	1.69	0.27
RPL18A (GeneID 6142)	SID152153232	no change	no change	-3.92	-0.9
ZDHHC20 (GeneID 253832)	SID134320737	no change	no change	-0.24	-0.78
DNAJC10 (GeneID 54431)	SID134317961	no change	no change	-0.06	-0.92
TXLNB (GeneID 167838)	SID152149656	no change	no change	-0.07	0.94
LILRB2 (GeneID 10288)	SID135623897	no change	no change	1.3	-0.36
GJC2 (GeneID 57165)	SID135623976	no change	no change	0.7	0.01
SLC25A47 (GeneID 283600)	SID135621349	no change	no change	0.66	1.12
RPS16 (GeneID 6217)	SID152156647	no change	no change	-4.86	-1.63
SPANXC (GeneID 64663)	SID135622434	no change	no change	-1.4	0.46
LGALS3BP (GeneID 3959)	SID134312949	no change	no change	0.89	1.48
ABCF3 (GeneID 55324)	SID152155647	no change	no change	0.12	0.56
NLRC5 (GeneID 84166)	SID152152595	no change	no change	0	0.09
RSPH9 (GeneID 221421)	SID152148530	no change	no change	0.42	-0.31
H2AB2 (GeneID 474381)	SID135625368	no change	no change	-0.74	1.26
ADPGK (GeneID 83440)	SID134311981	no change	no change	0.46	-0.11
NPEPPS (GeneID 9520)	SID152155599	RV1 (reduced viability) (active)	no change	-3.07	-0.72
ZNF212 (GeneID 7988)	SID134321459	no change	no change	-0.7	0.32
INSM1 (GeneID 3642)	SID134311858	no change	no change	0.62	-0.34
LSAMP (GeneID 4045)	SID134315670	no change	no change	1.54	0.12
CSK (GeneID 1445)	SID56478490	no change	no change	-0.48	-0.11
COL13A1 (GeneID 1305)	SID134317156	no change	no change	-1.04	0.68
E2F6 (GeneID 1876)	SID152155350	no change	no change	0.46	-0.4
SPATS2L (GeneID 26010)	SID135623949	no change	no change	0.4	-0.5
SMAP2 (GeneID 64744)	SID134318384	no change	no change	-0.24	0.1
KIAA0513 (GeneID 9764)	SID152149056	no change	no change	0.94	-0.64

Active calls (from the list above):
gene	PubChem SID	viability hit class	caspase hit class	viability robust z-score	caspase robust z-score
GOLGA1 (GeneID 2800)	SID134315994	no change (active)	CA1 (caspase activation)	-0.58	5.51
SMARCD2 (GeneID 6603)	SID135622118	no change (active)	CA1 (caspase activation)	-1.04	5.98
THSD7B (GeneID 80731)	SID152152035	no change (active)	CA2 (caspase activation)	-2.2	9.14
FBP1 (GeneID 2203)	SID152151611	no change (active)	CA1 (caspase activation)	-0.55	5.15
NPEPPS (GeneID 9520)	SID152155599	RV1 (reduced viability) (active)	no change	-3.07	-0.72
